Measurements reported in PubChem BioAssay AID1259308 (NCATS, 2017)
Purpose: 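Genes whose loss raises luciferase production in HEK293 cells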 (primary screen). System: human HEK293 embryonic kidney cells stably expressing firefly luciferase (HEK-CMV-Luc2-Hygro). Reagent: single siRNA against human genes, 0.8 pmol siRNA per well. Duration: 72 h. Measured: 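Luciferase light (ONE-Glo) measured on one replicate plate set and viability (CellTiter-Glo) on the other, scaled to a negative control siRNA, with robust z-scores and luciferase per cell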. Scale: total luciferase, z-score: higher = more reporter protein produced. Active means: 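An siRNA counts as active if its total luciferase robust z-score exceeds 3; genes with two or more such siRNAs out of three were retested with fresh siRNAs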. Meaning of the calls: active = raised luciferase; inactive = no rise.
This is an unselected part of about 59,000 deposited reagents. Over the whole deposit, about 1,510 (2.6%) got an active call. 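Calls use total luciferase alone and ignore viability, so some active siRNAs may act by altering cell number.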 The numbers tell different reagents against one gene apart. Not all columns of the deposit are shown.

target gene	siRNA no.	total luciferase, z-score	Call
CDC42EP2 (CDC42 effector protein 2)	1	0.0244	inactive
CDC42EP2 (CDC42 effector protein 2)	2	-1.52	inactive
CDC42EP2 (CDC42 effector protein 2)	3	-2.06	inactive
SLC25A31	1	1.94	inactive
SLC25A31	2	0.926	inactive
SLC25A31	3	-0.324	inactive
NR4A1 (nuclear receptor subfamily 4 group A member 1)	1	0.98	inactive
NR4A1 (nuclear receptor subfamily 4 group A member 1)	2	-0.072	inactive
NR4A1 (nuclear receptor subfamily 4 group A member 1)	3	-1.43	inactive
LINC01556 (long independently transcribed non-coding RNA 1556)	1	0.369	inactive
LINC01556 (long independently transcribed non-coding RNA 1556)	2	-1.17	inactive
LINC01556 (long independently transcribed non-coding RNA 1556)	3	-0.786	inactive
ACAD8 (acyl-CoA dehydrogenase family member 8)	1	3.51	active
ACAD8 (acyl-CoA dehydrogenase family member 8)	2	2.91	inactive
ACAD8 (acyl-CoA dehydrogenase family member 8)	3	1.91	inactive
DNMT1 (DNA methyltransferase 1)	1	-0.488	inactive
DNMT1 (DNA methyltransferase 1)	2	1.48	inactive
DNMT1 (DNA methyltransferase 1)	3	0.82	inactive
RYK (receptor like tyrosine kinase)	1	1.68	inactive
RYK (receptor like tyrosine kinase)	2	0.0582	inactive
RYK (receptor like tyrosine kinase)	3	0.0207	inactive
RBM39 (RNA binding motif protein 39)	1	5.48	active
RBM39 (RNA binding motif protein 39)	2	2.55	inactive
RBM39 (RNA binding motif protein 39)	3	0.4	inactive
BAG2 (BAG cochaperone 2)	1	0.654	inactive
BAG2 (BAG cochaperone 2)	2	-2.67	inactive
BAG2 (BAG cochaperone 2)	3	0.24	inactive
RANBP17 (RAN binding protein 17)	1	2.18	inactive
RANBP17 (RAN binding protein 17)	2	-0.414	inactive
RANBP17 (RAN binding protein 17)	3	0.0305	inactive
ALDH1A1 (aldehyde dehydrogenase 1 family member A1)	1	1.04	inactive
ALDH1A1 (aldehyde dehydrogenase 1 family member A1)	2	1.17	inactive
ALDH1A1 (aldehyde dehydrogenase 1 family member A1)	3	-1.21	inactive

Laid out differently: entries from further up.
RYK (receptor like tyrosine kinase) #3
- total luciferase, z-score: 0.0207
- Call: inactive

RBM39 (RNA binding motif protein 39) #1
- total luciferase, z-score: 5.48
- Call: active

RBM39 (RNA binding motif protein 39) #2
- total luciferase, z-score: 2.55
- Call: inactive

RBM39 (RNA binding motif protein 39) #3
- total luciferase, z-score: 0.4
- Call: inactive

Additional entries follow:
target gene	siRNA no.	total luciferase, z-score	Call
TSNAXIP1 (translin associated factor X interacting protein 1)	1	-1.01	inactive
TSNAXIP1 (translin associated factor X interacting protein 1)	2	0.252	inactive
TSNAXIP1 (translin associated factor X interacting protein 1)	3	-0.345	inactive
H2AZ2P1 (H2AZ2 pseudogene 1)	1	-1.31	inactive
H2AZ2P1 (H2AZ2 pseudogene 1)	2	0.185	inactive
H2AZ2P1 (H2AZ2 pseudogene 1)	3	0.195	inactive
TNMD (tenomodulin)	1	0.2	inactive
TNMD (tenomodulin)	2	-0.451	inactive
TNMD (tenomodulin)	3	-0.00895	inactive
POPDC1 (popeye domain cAMP effector 1)	1	0.896	inactive
POPDC1 (popeye domain cAMP effector 1)	2	0.269	inactive
POPDC1 (popeye domain cAMP effector 1)	3	0.938	inactive
CYP2B6 (cytochrome P450 family 2 subfamily B member 6)	1	1.45	inactive
CYP2B6 (cytochrome P450 family 2 subfamily B member 6)	2	-0.388	inactive
CYP2B6 (cytochrome P450 family 2 subfamily B member 6)	3	5.28	active
PDE4DIPP3 (PDE4DIP pseudogene 3)	1	0.318	inactive
PDE4DIPP3 (PDE4DIP pseudogene 3)	2	4.51	active
PDE4DIPP3 (PDE4DIP pseudogene 3)	3	0.317	inactive
PALLD (palladin, cytoskeletal associated protein)	1	-0.547	inactive
PALLD (palladin, cytoskeletal associated protein)	2	0.503	inactive
PALLD (palladin, cytoskeletal associated protein)	3	0.325	inactive
SLC27A6	1	1.14	inactive
SLC27A6	2	-1.28	inactive
SLC27A6	3	-0.281	inactive
